Among the data in publication PMC4550056 are binding values, retold here.

Protein sequences, listed by entry. Tags and fused reporters are not part of them.
UniProt Q92547: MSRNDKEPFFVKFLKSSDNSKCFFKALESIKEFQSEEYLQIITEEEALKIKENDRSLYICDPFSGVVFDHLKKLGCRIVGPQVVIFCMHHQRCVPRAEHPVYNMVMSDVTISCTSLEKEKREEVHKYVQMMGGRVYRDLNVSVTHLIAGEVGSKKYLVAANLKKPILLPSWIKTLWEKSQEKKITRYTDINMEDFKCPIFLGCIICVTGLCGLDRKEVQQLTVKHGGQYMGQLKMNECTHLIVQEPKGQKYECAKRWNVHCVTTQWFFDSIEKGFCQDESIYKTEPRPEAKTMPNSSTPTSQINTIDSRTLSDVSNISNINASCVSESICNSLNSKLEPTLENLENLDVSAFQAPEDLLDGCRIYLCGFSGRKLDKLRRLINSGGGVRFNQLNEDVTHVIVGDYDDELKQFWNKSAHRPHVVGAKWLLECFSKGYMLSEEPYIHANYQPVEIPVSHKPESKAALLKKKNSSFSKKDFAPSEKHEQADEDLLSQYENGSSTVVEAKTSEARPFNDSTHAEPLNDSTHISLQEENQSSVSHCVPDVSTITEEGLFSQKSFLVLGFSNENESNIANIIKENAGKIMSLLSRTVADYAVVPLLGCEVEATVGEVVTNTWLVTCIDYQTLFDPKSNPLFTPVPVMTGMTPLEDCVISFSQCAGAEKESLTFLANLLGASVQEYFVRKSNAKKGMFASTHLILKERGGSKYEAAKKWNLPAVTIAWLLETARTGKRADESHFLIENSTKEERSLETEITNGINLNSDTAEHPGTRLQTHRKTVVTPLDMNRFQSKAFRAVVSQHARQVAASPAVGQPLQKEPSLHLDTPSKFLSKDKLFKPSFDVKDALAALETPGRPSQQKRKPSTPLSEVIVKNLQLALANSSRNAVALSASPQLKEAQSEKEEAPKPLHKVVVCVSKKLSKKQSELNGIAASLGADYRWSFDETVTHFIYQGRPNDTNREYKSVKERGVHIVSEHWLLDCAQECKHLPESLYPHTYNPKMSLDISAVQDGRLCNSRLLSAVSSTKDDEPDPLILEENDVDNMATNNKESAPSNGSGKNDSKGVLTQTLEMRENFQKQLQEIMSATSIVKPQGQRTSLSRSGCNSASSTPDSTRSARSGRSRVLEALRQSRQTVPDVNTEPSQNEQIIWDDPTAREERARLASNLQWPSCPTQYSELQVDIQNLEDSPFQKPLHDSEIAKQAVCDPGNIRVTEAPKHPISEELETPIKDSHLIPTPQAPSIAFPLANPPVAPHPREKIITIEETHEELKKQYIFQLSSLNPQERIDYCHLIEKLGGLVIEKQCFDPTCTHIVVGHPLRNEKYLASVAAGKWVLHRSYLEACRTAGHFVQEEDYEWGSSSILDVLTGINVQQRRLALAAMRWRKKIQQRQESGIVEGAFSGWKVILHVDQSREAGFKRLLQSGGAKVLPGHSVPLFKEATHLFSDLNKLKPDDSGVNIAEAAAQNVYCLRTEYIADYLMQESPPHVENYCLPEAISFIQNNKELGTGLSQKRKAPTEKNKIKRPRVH

No constants are given. Whether binding was seen depends on the method and setting. For part of these data: Binding seen in cells or lysates may run through a third protein. Some binding calls cover weakened binding; strength is not graded here. For part of these data: Sequences can lack the tags named with a protein.

Assay [1] concerns the target GST-tagged human DNA topoisomerase II-binding protein 1 (GST-hTopBP1), expressed in HEK293 cells (human) (UniProt Q92547). As to the kind of experiment: co-IP; HEK293 cells co-transfected for 24 h; lysates precipitated with anti-GST antibody and protein A/G PLUS-agarose beads; blotted with anti-c-Myc and anti-GST.
Assay [2] addresses human DNA topoisomerase II-binding protein 1 (hTopBP1), endogenous (human (endogenous in HEK293)) (UniProt Q92547). The assay is described as follows: co-IP; endogenous proteins; HEK293 lysates precipitated with anti-hTopBP1 antibody (ImmunoCruz IP/WB Optima), 16 h at 4 °C; cells untreated or treated with 20 mM HU for 1 or 3 h; blotted with anti-hMYH and anti-hTopBP1.
Assay [3] deals with GST-hTopBP1, bacterially expressed (human) (UniProt Q92547). As to the kind of experiment: pull-down; GST or GST-hTopBP1 on glutathione Sepharose beads, mixed with purified His-hMYH (1.95 μg/μl) in PBS, 16 h at 4 °C; eluted with reduced glutathione; blotted with His and GST antibodies; both purified.

B1: c-Myc-tagged human mutY homolog (c-Myc-hMYH), full length (protein, UniProt Q9UIF7 1-546)
chain: MTPLVSRLSRLWAIMRKPRAAVGSGHRKQAASQEGRQKHAKNNSQAKPSACDGMIAECPGAPAGLARQPEEVVLQASVSSYHLFRDVAEVTAFRGSLLSWYDQEKRDLPWRRRAEDEMDLDRRAYAVWVSEVMLQQTQVATVINYYTGWMQKWPTLQDLASASLEEVNQLWAGLGYYSRGRRLQEGARKVVEELGGHMPRTAETLQQLLPGVGRYTAGAIASIAFGQATGVVDGNVARVLCRVRAIGADPSSTLVSQQLWGLAQQLVDPARPGDFNQAAMELGATVCTPQRPLCSQCPVESLCRARQRVEQEQLLASGSLSGSPDVEECAPNTGQCHLCLPPSEPWDQTLGVVNFPRKASRKPPREESSATCVLEQPGALGAQILLVQRPNSGLLAGLWEFPSVTWEPSEQLQRKALLQELQRWAGPLPATHLRHLGEVVHTFSHIKLTYQVYGLALEGQTPVTTVPPGARWLTQEEFHTAAVSTAMKKVFRVYQGQQPGTCMGSKRSQVSSPCSRKKPRMGQQVLDNFFRSHISTDAHSLNSAAQ
For the molecule B1, the binding result in assay [1] is “binds”.

B2: human mutY homolog (hMYH), endogenous (protein, UniProt Q9UIF7 1-546)
chain: B1 chain
Take B2: the binding result in assay [2] was “binds”.

B3: His-hMYH, bacterially expressed (protein, UniProt Q9UIF7 1-546)
chain: B1 chain
As to B3, the binding result in assay [3] is reported as “binds”.
